Results are given in words; binding and its absence hold for the method and conditions named. In cells and extracts the contact can be indirect.
Target: T1, EpCAM (Epithelial Cell Adhesion Molecule) (human) (UniProt P16422)
T1 sequence: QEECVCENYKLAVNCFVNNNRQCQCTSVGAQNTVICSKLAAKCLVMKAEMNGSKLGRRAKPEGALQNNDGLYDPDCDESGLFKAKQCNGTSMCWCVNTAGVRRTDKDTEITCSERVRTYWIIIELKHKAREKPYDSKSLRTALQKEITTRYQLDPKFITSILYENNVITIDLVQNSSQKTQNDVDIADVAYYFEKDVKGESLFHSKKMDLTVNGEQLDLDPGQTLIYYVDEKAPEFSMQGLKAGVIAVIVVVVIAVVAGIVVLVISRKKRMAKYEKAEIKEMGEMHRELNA
Experiment: co-IP; cell lysate (50 mM Tris/HCl pH 8.0, 150 mM NaCl, 1 mM DTT, 0.5% NP-40, 1% Triton X-100, 1 mM EGTA, 1 mM EDTA); precleared, antibodies overnight at 4 °C, protein A-Sepharose beads 2 h, three washes with lysis buffer, immunoblot; which protein was precipitated is not told

Protein sequences, listed by entry. Tags and fused reporters are not part of them.
UniProt O43707: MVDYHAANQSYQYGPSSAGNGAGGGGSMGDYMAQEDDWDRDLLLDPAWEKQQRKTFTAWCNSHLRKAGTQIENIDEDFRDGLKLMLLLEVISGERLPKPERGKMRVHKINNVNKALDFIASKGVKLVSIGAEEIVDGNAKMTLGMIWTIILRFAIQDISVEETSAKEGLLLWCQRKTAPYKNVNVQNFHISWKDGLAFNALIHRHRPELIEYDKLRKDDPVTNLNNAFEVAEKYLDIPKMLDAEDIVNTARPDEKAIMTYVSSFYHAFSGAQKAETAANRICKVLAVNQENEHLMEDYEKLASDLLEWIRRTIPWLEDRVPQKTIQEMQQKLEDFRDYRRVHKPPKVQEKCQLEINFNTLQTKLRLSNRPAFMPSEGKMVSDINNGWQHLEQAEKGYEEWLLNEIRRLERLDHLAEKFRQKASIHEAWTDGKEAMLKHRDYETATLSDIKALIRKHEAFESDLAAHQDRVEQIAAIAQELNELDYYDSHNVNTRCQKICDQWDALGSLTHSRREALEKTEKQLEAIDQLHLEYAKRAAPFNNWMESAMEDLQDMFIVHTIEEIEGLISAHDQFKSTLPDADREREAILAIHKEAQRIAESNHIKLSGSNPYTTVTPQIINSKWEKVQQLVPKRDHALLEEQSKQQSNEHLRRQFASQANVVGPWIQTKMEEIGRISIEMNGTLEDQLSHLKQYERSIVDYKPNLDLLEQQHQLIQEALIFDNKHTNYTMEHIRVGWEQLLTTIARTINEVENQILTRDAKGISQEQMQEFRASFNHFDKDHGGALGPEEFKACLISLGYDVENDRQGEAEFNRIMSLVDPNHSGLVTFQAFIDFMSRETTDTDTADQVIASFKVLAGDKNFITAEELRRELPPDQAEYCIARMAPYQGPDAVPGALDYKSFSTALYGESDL

binding: no binding
Substance: α4-actinin (from UniProt O43707 1-911)

— paper PMC8044225
